PubChem BioAssay AID652272, Drosophila RNAi Screening Center – 2013
In all, the deposit lists about 21,000 reagents; this is an unselected part of those with a known target gene and a result. Of all reagents, 503 (2.4%) were called active. 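Raw plate light values, not normalised; calls rest on replicate z-scores that were not deposited; hits include reporter decreases as well as increases.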 Not stated in the record: the amount of reagent, the time to read-out.

Assay: 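Genes whose knock-down decreases or increases Hedgehog reporter output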 (primary screen)
Cells: Drosophila clone 8 (Cl8) cells
Knock-down reagent: long dsRNA against Drosophila genes
Measurement: 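Plate reader light from a firefly reporter under a ptc promoter fragment that responds to Hedgehog, with Renilla light as transfection reference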
Reading the numbers: firefly Hh reporter signal: higher = more ptc reporter light; Renilla reference signal: higher = more Renilla control light
Rule for the call: 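Hit when the z-score averaged over two replicates is under -2 or over +3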
Meaning of the calls: active = hit: reporter lowered or raised; inactive = not a hit

Cpr49Ad (GeneID 36349) — firefly Hh reporter signal, replicate 1 = 1.15e5; firefly Hh reporter signal, replicate 2 = 76391; Renilla reference signal, replicate 1 = 2949; Renilla reference signal, replicate 2 = 6161; Call = inactive
CG45067 (GeneID 38371) — firefly Hh reporter signal, replicate 1 = 64442; firefly Hh reporter signal, replicate 2 = 39176; Renilla reference signal, replicate 1 = 1568; Renilla reference signal, replicate 2 = 2986; Call = inactive
CG13362 (GeneID 31018) — firefly Hh reporter signal, replicate 1 = 91520; firefly Hh reporter signal, replicate 2 = 2.00e5; Renilla reference signal, replicate 1 = 3211; Renilla reference signal, replicate 2 = 6528; Call = inactive
mtm (GeneID 33845) — firefly Hh reporter signal, replicate 1 = 88194; firefly Hh reporter signal, replicate 2 = 71780; Renilla reference signal, replicate 1 = 3862; Renilla reference signal, replicate 2 = 3554; Call = inactive
Taf2 (GeneID 39164) — firefly Hh reporter signal, replicate 1 = 1.11e5; firefly Hh reporter signal, replicate 2 = 58627; Renilla reference signal, replicate 1 = 4550; Renilla reference signal, replicate 2 = 1829; Call = inactive
CG13228 (GeneID 36178) — firefly Hh reporter signal, replicate 1 = 94032; firefly Hh reporter signal, replicate 2 = 46972; Renilla reference signal, replicate 1 = 1985; Renilla reference signal, replicate 2 = 3202; Call = inactive
CG6034 (GeneID 39974) — firefly Hh reporter signal, replicate 1 = 1.09e5; Renilla reference signal, replicate 1 = 4388; Renilla reference signal, replicate 2 = 2912; Call = inactive
CG13088 (GeneID 34180) — firefly Hh reporter signal, replicate 1 = 1.10e5; firefly Hh reporter signal, replicate 2 = 62400; Renilla reference signal, replicate 1 = 2992; Renilla reference signal, replicate 2 = 6144; Call = inactive
CG1662 (GeneID 32296) — firefly Hh reporter signal, replicate 1 = 1.10e5; firefly Hh reporter signal, replicate 2 = 95968; Renilla reference signal, replicate 1 = 3044; Renilla reference signal, replicate 2 = 1995; Call = inactive
CG5334 (GeneID 32402) — firefly Hh reporter signal, replicate 1 = 95419; firefly Hh reporter signal, replicate 2 = 2.81e5; Renilla reference signal, replicate 1 = 3212; Renilla reference signal, replicate 2 = 10800; Call = inactive
Pgant6 (GeneID 38346) — firefly Hh reporter signal, replicate 1 = 1.52e5; firefly Hh reporter signal, replicate 2 = 92652; Renilla reference signal, replicate 1 = 6136; Renilla reference signal, replicate 2 = 3667; Call = inactive
Lamp1 (GeneID 35411) — firefly Hh reporter signal, replicate 1 = 54996; firefly Hh reporter signal, replicate 2 = 58221; Renilla reference signal, replicate 1 = 1288; Renilla reference signal, replicate 2 = 5125; Call = inactive
Lap1 (GeneID 36670) — firefly Hh reporter signal, replicate 1 = 66618; firefly Hh reporter signal, replicate 2 = 38076; Renilla reference signal, replicate 1 = 1657; Renilla reference signal, replicate 2 = 2836; Call = inactive
CG18404 (GeneID 43603) — firefly Hh reporter signal, replicate 1 = 84080; firefly Hh reporter signal, replicate 2 = 1.14e5; Renilla reference signal, replicate 1 = 2450; Renilla reference signal, replicate 2 = 3111; Call = inactive

Targets listed so far whose gene name begins with L or l (2):
Lamp1 (GeneID 35411) — firefly Hh reporter signal, replicate 1 = 54996; firefly Hh reporter signal, replicate 2 = 58221; Renilla reference signal, replicate 1 = 1288; Renilla reference signal, replicate 2 = 5125; Call = inactive
Lap1 (GeneID 36670) — firefly Hh reporter signal, replicate 1 = 66618; firefly Hh reporter signal, replicate 2 = 38076; Renilla reference signal, replicate 1 = 1657; Renilla reference signal, replicate 2 = 2836; Call = inactive
